Results are given in words; binding and its absence hold for the method and conditions named. Binding seen in cells or lysates may run through a third protein. A result given as binding can be weak or reduced; the word gives no strength. Tags and fused reporters may be left off the sequences shown.

Chains of the proteins cited; added tags and fusions are not shown. Lines headed by an entry give the natural chain unless they say otherwise; changes in a name come on top.
UniProt Q9WTZ2: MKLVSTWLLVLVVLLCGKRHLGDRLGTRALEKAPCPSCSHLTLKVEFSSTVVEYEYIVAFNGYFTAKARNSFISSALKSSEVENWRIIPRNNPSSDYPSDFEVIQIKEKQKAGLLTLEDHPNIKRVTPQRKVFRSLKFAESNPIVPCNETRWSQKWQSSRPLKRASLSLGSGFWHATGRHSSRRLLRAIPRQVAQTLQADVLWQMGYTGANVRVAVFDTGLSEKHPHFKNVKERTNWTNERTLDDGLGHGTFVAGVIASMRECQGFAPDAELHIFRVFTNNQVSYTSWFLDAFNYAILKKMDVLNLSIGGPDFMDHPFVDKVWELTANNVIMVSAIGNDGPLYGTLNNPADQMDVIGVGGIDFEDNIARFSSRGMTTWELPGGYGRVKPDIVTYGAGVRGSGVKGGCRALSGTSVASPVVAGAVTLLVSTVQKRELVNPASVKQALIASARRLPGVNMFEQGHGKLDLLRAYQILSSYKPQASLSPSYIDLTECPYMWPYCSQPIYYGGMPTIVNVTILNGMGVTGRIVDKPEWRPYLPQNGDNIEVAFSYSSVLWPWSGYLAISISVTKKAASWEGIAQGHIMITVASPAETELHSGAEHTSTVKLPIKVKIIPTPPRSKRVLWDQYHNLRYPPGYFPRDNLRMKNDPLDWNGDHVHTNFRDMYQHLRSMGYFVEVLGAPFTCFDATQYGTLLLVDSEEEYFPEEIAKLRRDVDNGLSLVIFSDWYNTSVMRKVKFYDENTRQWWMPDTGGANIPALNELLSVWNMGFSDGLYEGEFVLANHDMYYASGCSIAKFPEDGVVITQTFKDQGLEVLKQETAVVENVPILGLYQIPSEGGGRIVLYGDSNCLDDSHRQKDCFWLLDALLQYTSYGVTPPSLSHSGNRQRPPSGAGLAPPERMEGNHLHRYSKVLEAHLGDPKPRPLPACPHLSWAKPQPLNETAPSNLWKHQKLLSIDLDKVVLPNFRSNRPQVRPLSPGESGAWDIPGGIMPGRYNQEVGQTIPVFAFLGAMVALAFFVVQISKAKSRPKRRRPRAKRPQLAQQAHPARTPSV

This test concerns the target T1, HA-tagged mouse caspase-11 (mouse) (UniProt P70343).
T1 sequence: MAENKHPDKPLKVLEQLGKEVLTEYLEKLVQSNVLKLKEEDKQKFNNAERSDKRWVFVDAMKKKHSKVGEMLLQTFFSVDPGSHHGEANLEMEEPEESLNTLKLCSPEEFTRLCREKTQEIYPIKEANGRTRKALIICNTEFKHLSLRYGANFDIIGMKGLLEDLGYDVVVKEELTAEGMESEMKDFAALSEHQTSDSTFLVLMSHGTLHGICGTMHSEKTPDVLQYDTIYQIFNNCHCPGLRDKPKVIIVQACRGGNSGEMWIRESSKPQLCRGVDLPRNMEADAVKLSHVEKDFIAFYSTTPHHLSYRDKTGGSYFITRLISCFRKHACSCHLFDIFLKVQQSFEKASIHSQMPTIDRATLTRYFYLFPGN
The test can be described thus: co-IP; HEK293T co-transfected with HA-caspase-11 and FLAG-S1P (full length or single domains), 24 h; whole cell lysates (50 mM NaCl, 200 mM Tris-HCl pH 7.5, 1 mM EDTA, 1% NP-40) immunoprecipitated with anti-HA antibody at 4 C overnight, protein G-agarose; blot with anti-FLAG.

Regarding “FLAG-tagged mouse S1P domain 1 (domain or fragment)”, the binding entry is given as “binds”.

On to “full-length FLAG-tagged mouse S1P (from UniProt Q9WTZ2) (enzyme)”, for which the binding entry is recorded as “binds”. With “FLAG-tagged mouse S1P domain 2 (domain or fragment)” the entry was “no binding”; with “FLAG-tagged mouse S1P domain 3 (domain or fragment)”, “binds”.

The values above are taken from PMC9912839.
